The exact form of at least one protein or probe is not confirmed. The comparison behind a weaker result is the experiment's own reference, which may not be listed here. For some assays here: At least one verdict was read from the data and is not stated in words by the source. Tags and fusion partners may be left off the protein sequences shown.
How the values were obtained:
[1] = molecular target: T1, PHF14 ePHD domain WT (Homo sapiens) (UniProt O94880); test: EMSA; settings: EMSA: LightShift kit protocol, 0.5x TBE native PAGE, buffer not stated; recombinant protein; protein details: His (EMSA, purification method), FLAG (SPR); label: biotin (EMSA)
T1 sequence (looked up, limits assumed): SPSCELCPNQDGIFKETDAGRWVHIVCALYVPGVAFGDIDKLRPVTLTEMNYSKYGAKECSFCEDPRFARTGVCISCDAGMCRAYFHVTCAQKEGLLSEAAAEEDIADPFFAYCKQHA

[2] = system: T2, PHF14 full-length WT (Homo sapiens); test: EMSA; settings: EMSA: LightShift kit protocol, 0.5x TBE native PAGE, buffer not stated; recombinant protein; protein details: His; label: biotin (EMSA)
T2 sequence (looked up, limits assumed): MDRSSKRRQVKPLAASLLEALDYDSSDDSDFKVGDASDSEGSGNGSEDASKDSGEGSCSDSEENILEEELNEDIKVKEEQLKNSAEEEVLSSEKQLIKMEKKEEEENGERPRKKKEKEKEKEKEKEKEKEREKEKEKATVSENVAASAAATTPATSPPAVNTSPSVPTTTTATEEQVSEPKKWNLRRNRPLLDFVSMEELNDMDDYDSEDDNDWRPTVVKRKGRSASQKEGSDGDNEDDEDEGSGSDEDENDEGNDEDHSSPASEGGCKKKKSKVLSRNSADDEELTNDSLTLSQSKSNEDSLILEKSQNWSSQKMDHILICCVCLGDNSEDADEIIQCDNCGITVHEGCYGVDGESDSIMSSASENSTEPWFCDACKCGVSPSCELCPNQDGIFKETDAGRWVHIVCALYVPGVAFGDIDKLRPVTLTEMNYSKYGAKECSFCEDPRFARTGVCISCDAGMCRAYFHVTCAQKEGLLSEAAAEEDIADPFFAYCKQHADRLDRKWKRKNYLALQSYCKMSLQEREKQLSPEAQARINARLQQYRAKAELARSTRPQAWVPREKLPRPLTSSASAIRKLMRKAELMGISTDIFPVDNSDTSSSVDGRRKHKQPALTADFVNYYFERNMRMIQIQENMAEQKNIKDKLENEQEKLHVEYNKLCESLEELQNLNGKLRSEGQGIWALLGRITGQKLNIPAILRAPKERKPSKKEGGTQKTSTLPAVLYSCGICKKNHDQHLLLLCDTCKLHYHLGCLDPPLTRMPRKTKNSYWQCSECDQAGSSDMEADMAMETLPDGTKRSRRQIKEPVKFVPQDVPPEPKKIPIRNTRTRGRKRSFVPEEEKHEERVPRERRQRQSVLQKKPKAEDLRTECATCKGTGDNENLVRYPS

CATTAGATGATAGCATTAGATGATAG (double strand) [AT-rich probe]
binding result [1]: binds more weakly | binding result [2]: binds more weakly
